Results taken from patent US20050043234A1.
Results are given in words; binding and its absence hold for the method and conditions named. Some results given as binding are weak or reduced against the parent protein; the word gives no strength.

Chains of the proteins cited; added tags and fusions are not shown. Lines headed by an entry give the natural chain unless they say otherwise; changes in a name come on top.
UniProt O76093: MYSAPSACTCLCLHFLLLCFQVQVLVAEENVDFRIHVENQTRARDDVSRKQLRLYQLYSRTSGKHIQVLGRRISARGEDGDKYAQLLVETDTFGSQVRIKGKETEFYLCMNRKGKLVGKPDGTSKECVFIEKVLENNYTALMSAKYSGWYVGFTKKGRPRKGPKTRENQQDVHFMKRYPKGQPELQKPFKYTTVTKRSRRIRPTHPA
UniProt P22607: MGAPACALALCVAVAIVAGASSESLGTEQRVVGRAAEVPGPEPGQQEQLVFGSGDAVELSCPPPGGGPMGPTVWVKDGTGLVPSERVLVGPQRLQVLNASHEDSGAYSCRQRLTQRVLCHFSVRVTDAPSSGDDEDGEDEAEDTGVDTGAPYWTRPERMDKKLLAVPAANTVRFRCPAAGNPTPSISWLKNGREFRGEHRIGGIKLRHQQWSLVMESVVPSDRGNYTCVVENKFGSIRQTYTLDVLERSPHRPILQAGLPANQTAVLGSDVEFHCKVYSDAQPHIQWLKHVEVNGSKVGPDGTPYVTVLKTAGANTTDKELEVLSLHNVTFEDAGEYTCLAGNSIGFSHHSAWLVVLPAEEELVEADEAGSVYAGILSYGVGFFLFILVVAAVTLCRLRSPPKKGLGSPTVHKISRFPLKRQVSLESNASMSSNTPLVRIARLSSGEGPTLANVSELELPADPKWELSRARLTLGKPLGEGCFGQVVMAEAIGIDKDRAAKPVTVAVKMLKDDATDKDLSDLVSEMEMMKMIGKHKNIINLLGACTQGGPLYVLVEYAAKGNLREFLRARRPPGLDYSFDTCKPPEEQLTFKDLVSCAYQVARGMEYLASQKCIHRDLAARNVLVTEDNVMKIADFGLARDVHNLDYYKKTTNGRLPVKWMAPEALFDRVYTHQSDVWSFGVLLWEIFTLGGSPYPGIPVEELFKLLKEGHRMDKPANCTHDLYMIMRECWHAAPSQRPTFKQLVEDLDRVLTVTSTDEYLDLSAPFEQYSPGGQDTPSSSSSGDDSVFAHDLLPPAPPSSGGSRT

Target: zFGF5 (human) (UniProt O76093)
Assay: soluble receptor-Fc competition, proliferation of BAF3 cells expressing FGFR3α-IIIc

FGFR3α-IIIc/Fc (from UniProt P22607 23-375) (Fc fusion)
binding: binds
